These are yes or no findings as the source states them, for the method shown. Binding seen in cells or lysates may run through a third protein. Some binding calls cover weakened binding; strength is not graded here. One block for each molecule: values may come before it.
Key:
[1] = molecular target: eukaryotic initiation factor 4E (eIF4E), wild-type mice (Eif4e^+/+) (mouse (endogenous in dentate gyrus)) (UniProt P63073); assay: pull-down; m^7GTP cap-pulldown: 250-300 ug dentate gyrus lysate with 30 ul 7-methyl GTP-agarose beads, 90 min at 4 °C, three washes, bound proteins immunoblotted and normalised to m^7GTP-bound eIF4E; naive mice (basal) and 40 min post-HFS (ipsilateral HFS-treated DG against contralateral control)
[2] = molecular target: eIF4E Ser209Ala, from homozygous Eif4e^S209A knockin mice (Eif4e^ki/ki) (mouse (endogenous in dentate gyrus)) (UniProt P63073); assay: as above

Chains of the proteins cited; added tags and fusions are not shown. Lines headed by an entry give the natural chain unless they say otherwise; changes in a name come on top.
UniProt P63073: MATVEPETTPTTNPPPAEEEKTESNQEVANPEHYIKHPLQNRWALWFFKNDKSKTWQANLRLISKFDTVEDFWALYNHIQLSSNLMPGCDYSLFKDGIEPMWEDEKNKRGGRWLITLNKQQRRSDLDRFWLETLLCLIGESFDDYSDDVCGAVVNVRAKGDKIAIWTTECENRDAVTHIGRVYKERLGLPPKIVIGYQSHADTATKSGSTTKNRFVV
UniProt Q7TMB8: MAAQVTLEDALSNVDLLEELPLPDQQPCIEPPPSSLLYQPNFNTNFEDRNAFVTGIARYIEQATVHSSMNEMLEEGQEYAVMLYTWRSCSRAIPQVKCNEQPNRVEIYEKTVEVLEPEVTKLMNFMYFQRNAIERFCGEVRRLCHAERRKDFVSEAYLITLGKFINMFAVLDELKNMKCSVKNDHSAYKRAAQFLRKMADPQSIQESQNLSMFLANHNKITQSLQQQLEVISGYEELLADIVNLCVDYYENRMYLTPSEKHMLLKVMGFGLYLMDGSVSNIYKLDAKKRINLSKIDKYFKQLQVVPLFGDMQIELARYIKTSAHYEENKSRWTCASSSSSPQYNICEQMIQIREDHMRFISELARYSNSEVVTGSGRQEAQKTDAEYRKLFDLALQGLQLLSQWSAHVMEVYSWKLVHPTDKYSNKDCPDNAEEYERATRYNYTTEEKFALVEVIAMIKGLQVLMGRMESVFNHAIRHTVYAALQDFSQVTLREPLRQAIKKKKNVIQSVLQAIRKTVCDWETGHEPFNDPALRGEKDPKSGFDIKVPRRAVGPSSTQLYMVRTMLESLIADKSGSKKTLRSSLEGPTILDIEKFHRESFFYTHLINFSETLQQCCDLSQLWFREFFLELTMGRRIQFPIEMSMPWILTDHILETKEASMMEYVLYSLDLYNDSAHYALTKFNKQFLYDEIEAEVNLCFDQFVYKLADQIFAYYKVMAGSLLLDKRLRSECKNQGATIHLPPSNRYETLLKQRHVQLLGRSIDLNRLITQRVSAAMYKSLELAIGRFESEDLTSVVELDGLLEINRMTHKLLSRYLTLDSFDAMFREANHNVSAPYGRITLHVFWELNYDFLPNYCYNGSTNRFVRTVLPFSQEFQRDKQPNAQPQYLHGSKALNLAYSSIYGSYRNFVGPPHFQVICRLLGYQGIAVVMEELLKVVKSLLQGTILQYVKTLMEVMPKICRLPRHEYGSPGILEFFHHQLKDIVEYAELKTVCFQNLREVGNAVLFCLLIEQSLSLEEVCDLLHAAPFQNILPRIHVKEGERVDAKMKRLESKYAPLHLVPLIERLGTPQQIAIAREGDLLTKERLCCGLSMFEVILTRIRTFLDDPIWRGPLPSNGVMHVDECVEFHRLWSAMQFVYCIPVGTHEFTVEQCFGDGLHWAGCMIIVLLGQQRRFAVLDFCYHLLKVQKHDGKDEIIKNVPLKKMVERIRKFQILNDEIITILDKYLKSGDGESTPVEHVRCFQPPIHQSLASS

binding [1]: binds
binding [2]: binds
Molecule: cytoplasmic FMRP interacting protein-1 (CYFIP1) (from UniProt Q7TMB8 1-1253)

binding [1]: binds
binding [2]: binds
B1: eIF4E-binding protein 2 (4E-BP2) (protein, UniProt P70445 1-120)
chain: MSASAGGSHQPSQSRAIPTRTVAISDAAQLPQDYCTTPGGTLFSTTPGGTRIIYDRKFLLDRRNSPMAQTPPCHLPNIPGVTSPGALIEDSKVEVNNLNNLNNHDRKHAVGDEAQFEMDI
